The list shows a part of the results. Small differences around the control level are noise.
These targets were tested with CN[C@@H]1C[C@H]2O[C@@](C)([C@@H]1OC)n1c3ccccc3c3c4c(c5c6ccccc6n2c5c31)C(=O)NC4 [staurosporine] (assay: log2 fold change of tryptic peptide abundance, ligand vs vehicle (limited proteolysis) (log2 ratio); higher = more trypsin-susceptible (destabilized)). Details: ligand concentration: 20 uM; sample: mouse liver crude lysate; replicate design: treated separately.

The chains behind the UniProt entries cited, without tags or fusion partners. Where a name states a change or a piece, a line headed by the entry shows the natural chain unless it says otherwise.
UniProt B2RX12: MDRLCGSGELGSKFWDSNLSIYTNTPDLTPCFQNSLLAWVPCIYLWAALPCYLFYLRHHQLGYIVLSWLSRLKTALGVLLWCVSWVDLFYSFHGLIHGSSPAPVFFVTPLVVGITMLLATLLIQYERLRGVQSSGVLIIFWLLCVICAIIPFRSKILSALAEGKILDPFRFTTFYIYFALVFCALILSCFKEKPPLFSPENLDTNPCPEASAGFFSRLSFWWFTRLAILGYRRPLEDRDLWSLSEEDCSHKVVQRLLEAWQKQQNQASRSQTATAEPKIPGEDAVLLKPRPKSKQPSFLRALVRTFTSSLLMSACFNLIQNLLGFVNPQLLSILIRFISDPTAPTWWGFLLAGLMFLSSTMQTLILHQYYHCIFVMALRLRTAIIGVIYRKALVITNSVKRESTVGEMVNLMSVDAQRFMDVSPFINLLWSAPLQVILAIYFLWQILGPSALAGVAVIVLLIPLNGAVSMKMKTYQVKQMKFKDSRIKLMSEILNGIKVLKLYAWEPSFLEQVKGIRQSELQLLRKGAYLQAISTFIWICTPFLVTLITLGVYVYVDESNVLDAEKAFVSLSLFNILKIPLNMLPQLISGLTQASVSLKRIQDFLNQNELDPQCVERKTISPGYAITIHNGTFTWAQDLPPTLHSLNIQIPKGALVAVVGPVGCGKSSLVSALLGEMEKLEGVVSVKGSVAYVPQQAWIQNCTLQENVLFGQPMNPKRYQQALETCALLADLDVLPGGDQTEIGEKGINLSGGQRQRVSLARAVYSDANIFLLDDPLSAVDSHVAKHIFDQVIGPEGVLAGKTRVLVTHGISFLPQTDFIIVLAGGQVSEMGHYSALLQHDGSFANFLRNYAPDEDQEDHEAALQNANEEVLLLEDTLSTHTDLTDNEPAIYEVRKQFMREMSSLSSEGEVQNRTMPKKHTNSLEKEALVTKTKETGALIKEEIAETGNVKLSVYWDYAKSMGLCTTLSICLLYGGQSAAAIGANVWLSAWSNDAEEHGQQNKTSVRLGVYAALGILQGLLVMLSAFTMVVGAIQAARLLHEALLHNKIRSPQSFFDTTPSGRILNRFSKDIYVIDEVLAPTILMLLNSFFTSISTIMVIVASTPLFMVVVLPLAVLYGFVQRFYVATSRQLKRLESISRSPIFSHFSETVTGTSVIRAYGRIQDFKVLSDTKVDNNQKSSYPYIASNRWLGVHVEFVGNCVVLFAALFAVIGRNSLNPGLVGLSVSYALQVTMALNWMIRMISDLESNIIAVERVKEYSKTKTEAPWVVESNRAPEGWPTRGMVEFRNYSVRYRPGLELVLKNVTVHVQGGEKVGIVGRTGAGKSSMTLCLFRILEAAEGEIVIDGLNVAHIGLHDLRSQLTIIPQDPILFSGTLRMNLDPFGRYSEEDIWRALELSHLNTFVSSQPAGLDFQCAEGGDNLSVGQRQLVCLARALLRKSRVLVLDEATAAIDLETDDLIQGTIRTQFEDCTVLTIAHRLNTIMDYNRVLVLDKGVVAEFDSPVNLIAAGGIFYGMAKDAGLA
UniProt O08601: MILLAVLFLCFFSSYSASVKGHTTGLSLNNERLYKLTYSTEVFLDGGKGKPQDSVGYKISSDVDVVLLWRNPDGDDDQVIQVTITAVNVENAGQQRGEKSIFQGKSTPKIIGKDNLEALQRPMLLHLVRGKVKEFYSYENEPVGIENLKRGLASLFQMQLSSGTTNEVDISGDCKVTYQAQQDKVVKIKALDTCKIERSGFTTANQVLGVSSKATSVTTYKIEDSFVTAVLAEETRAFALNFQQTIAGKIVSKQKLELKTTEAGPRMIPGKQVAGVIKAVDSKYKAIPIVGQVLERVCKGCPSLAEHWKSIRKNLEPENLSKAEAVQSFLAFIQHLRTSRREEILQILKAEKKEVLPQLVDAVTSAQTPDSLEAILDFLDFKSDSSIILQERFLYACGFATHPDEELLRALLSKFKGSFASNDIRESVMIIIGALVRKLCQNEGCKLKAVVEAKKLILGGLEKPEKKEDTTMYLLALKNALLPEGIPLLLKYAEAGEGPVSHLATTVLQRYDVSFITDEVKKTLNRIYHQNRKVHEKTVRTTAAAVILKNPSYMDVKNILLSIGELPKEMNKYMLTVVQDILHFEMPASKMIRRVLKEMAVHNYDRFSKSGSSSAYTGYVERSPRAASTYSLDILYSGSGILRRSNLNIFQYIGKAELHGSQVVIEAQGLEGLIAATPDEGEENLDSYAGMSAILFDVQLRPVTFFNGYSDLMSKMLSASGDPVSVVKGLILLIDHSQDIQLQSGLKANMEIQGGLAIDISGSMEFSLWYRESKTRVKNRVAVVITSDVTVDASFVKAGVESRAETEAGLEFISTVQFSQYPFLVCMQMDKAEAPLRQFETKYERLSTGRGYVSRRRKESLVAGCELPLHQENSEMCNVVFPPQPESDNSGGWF
UniProt B5X0E4: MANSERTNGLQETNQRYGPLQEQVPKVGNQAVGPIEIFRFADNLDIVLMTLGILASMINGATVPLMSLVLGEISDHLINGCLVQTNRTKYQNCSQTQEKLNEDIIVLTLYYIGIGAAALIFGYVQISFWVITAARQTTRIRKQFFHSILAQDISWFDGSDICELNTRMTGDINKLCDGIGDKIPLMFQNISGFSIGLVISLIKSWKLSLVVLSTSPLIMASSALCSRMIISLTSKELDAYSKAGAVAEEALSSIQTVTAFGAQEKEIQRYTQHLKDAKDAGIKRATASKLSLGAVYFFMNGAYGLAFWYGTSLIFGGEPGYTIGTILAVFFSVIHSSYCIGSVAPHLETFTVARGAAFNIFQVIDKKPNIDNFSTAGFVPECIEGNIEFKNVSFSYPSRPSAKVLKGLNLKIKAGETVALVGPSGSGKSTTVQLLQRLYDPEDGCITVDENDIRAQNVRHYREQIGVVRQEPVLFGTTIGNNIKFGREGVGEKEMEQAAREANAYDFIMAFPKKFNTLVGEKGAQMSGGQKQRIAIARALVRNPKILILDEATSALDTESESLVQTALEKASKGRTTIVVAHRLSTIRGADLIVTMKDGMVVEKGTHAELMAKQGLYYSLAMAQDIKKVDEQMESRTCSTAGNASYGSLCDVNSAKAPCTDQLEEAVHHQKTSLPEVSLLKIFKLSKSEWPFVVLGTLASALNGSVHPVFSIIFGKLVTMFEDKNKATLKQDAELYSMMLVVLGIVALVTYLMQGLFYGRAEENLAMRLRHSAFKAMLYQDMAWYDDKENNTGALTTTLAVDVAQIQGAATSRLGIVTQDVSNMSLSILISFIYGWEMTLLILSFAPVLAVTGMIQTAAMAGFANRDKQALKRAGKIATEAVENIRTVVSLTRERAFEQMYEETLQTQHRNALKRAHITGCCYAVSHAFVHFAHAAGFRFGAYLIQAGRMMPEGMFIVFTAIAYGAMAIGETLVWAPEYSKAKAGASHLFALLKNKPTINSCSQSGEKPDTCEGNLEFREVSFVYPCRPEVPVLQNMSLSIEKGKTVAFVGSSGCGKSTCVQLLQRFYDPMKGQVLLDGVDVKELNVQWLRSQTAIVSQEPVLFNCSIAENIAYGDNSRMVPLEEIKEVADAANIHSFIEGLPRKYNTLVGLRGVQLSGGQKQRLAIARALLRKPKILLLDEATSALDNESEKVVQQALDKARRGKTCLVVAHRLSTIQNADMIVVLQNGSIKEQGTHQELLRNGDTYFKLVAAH
UniProt O08738: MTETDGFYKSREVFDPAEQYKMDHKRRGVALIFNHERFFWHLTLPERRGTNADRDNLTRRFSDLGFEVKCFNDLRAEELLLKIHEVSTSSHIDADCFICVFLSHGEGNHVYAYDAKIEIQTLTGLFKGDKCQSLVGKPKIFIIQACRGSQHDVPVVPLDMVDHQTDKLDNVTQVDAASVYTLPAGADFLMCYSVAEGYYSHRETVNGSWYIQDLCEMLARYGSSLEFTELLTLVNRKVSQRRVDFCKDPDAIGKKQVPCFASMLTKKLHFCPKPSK
UniProt F8VQB6, whole entry: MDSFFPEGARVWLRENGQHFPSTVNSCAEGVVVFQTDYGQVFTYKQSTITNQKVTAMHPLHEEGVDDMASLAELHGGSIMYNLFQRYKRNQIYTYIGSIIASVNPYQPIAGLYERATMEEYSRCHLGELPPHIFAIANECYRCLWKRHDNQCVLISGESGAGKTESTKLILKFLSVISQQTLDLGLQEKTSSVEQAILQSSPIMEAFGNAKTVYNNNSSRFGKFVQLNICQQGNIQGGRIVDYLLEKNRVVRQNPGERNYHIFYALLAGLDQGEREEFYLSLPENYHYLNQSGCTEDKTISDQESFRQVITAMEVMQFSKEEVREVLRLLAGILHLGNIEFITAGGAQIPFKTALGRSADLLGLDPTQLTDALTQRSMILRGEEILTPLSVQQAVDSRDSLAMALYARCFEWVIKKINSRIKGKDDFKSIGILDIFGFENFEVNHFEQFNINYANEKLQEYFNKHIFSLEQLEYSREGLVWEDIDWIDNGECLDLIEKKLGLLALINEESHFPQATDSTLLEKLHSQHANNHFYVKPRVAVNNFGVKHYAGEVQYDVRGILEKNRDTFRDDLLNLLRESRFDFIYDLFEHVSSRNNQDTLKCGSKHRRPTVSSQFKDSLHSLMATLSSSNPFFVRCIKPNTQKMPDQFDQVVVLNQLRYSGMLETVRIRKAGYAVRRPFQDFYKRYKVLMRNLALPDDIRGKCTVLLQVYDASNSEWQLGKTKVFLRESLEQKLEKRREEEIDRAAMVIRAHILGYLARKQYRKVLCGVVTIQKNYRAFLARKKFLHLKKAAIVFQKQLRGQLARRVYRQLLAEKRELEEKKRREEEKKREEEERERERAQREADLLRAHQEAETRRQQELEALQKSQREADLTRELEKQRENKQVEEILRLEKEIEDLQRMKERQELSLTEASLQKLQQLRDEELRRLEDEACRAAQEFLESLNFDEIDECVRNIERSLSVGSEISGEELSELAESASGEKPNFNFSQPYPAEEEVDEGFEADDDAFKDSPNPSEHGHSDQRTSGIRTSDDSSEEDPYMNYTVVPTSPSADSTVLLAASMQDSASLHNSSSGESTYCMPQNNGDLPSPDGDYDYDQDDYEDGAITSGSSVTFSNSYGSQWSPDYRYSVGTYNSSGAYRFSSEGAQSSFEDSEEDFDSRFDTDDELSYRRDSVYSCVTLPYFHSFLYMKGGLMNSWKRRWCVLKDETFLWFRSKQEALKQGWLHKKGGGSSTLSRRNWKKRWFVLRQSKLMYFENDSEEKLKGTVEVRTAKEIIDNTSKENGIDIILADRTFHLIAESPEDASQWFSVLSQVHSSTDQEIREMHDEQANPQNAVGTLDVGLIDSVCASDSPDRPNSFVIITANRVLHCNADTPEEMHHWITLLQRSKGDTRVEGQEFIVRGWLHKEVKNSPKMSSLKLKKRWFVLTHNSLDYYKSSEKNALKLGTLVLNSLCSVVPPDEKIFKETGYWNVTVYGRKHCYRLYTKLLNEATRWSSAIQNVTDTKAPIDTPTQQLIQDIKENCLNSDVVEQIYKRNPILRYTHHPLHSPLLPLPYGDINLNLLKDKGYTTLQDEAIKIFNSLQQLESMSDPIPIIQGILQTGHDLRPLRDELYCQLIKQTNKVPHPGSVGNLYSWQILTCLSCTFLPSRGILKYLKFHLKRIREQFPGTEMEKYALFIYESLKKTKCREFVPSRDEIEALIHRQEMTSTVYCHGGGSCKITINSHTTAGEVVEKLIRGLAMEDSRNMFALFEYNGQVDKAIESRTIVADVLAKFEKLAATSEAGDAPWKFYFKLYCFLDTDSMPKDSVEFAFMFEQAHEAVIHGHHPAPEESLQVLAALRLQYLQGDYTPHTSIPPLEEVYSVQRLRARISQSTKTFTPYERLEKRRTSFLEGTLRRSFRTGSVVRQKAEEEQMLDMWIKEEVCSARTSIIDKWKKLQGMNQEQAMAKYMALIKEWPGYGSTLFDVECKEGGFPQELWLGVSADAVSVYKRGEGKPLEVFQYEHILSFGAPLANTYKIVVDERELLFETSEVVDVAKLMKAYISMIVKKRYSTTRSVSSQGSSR
UniProt O35326: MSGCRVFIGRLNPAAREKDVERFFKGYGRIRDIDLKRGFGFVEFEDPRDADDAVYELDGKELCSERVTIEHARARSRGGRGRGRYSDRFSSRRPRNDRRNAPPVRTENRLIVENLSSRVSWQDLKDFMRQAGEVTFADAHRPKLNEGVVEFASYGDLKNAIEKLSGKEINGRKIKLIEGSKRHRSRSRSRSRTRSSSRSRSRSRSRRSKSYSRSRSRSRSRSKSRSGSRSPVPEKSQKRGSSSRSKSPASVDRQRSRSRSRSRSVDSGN

| Target | log2 fold change |
| --- | --- |
| UniProt O08915 (peptide sequence: GKPMELIVGK, peptide start residue: 57) | 0.289 |
| UniProt B2RX12 (peptide sequence: GINLSGGQR, peptide start residue: 806) | -0.29 |
| UniProt F8VPZ3 (peptide sequence: MLHVVDGKVPDTLR, peptide start residue: 119) | -0.514 |
| UniProt O08601 (peptide sequence: MLSASGDPVSVVK, peptide start residue: 716) | -0.235 |
| UniProt B5X0E4 (peptide sequence: STTVQLLQR, peptide start residue: 433) | -0.339 |
| UniProt O08738 (peptide sequence: RVDFCKDPDAIGK, peptide start residue: 242) | -0.534 |
| UniProt O08664 (peptide sequence: KVMATIEK, peptide start residue: 20) | 0.289 |
| UniProt O08638 (peptide sequence: SKLQEVEGAVK, peptide start residue: 1799) | 0.303 |
| UniProt O08756 (peptide sequence: EIQAALTLAK, peptide start residue: 70) | 0.169 |
| UniProt F8VQB6 (peptide sequence: VAVNNFGVK, peptide start residue: 539) | -0.279 |
| UniProt O35326 (peptide sequence: DADDAVYELDGK, peptide start residue: 49) | 0.111 |
| UniProt F8VPZ9 (peptide sequence: ENMGNPGAAEGAQGRPR, peptide start residue: 1407) | 0.476 |

Some of the entries above in a different format.
Target	log2 fold change
UniProt O08915 (peptide sequence: GKPMELIVGK, peptide start residue: 57)	0.289
UniProt F8VPZ3 (peptide sequence: MLHVVDGKVPDTLR, peptide start residue: 119)	-0.514
UniProt O08638 (peptide sequence: SKLQEVEGAVK, peptide start residue: 1799)	0.303
